Data as given in PubChem BioAssay AID1259424 (University of Nebraska Medical Center, 2018).
Screen: 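Rank knockdowns across the genome by resemblance to the KSR1 depletion profile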 (primary screen). Cell system: human HCT116 colon cancer cells. Reagent: siRNA pool against human genes, 50 nM. Read-out: 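Six signature mRNAs by branched-DNA multiplex assay, scaled to two housekeeping genes and non-targeting median, log2; matched to mean KSR1 knockdown profile by Pearson correlation and euclidean distance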. Reading the numbers: mean correlation with KSR1 profile: higher = expression change more like KSR1 knockdown; mean distance from KSR1 profile: higher = expression change less like KSR1 knockdown.
The deposit covers about 14,000 reagents; shown is a part drawn at random. 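Higher correlation or smaller distance means closer resemblance to KSR1 loss; control wells, including KSR1 knockdowns, recur on many plates.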 Further read-outs or replicates are left out here. Not stated in the record: the time to read-out.

PSMC3IP — mean correlation with KSR1 profile: 0.66; mean distance from KSR1 profile: 1.28
NAA10 — mean correlation with KSR1 profile: -0.393; mean distance from KSR1 profile: 3.54
QRICH1 — mean correlation with KSR1 profile: -0.136; mean distance from KSR1 profile: 2.21
PAQR8 — mean correlation with KSR1 profile: 0.778; mean distance from KSR1 profile: 4.14
SLC2A4 — mean correlation with KSR1 profile: 0.269; mean distance from KSR1 profile: 1.12
OCLM (retired record) — mean correlation with KSR1 profile: 0.0746; mean distance from KSR1 profile: 0.755
PPID — mean correlation with KSR1 profile: 0.631; mean distance from KSR1 profile: 1.65
ACP5 — mean correlation with KSR1 profile: -0.831; mean distance from KSR1 profile: 2.95
ZBTB7B — mean correlation with KSR1 profile: -0.524; mean distance from KSR1 profile: 2.11
ENSA — mean correlation with KSR1 profile: -0.388; mean distance from KSR1 profile: 1.95
UAP1 — mean correlation with KSR1 profile: 0.0966; mean distance from KSR1 profile: 1.8
GPBP1L1 — mean correlation with KSR1 profile: -0.717; mean distance from KSR1 profile: 2.27
PPEF1 — mean correlation with KSR1 profile: 0.49; mean distance from KSR1 profile: 1.87
CLDN18 — mean correlation with KSR1 profile: 0.23; mean distance from KSR1 profile: 3.76
AACS — mean correlation with KSR1 profile: 0.11; mean distance from KSR1 profile: 1.44
CWC22 — mean correlation with KSR1 profile: -0.398; mean distance from KSR1 profile: 3.05
DNAI7 — mean correlation with KSR1 profile: 0.114; mean distance from KSR1 profile: 3.01
HCRTR1 — mean correlation with KSR1 profile: 0.162; mean distance from KSR1 profile: 2.33
MFSD11 — mean correlation with KSR1 profile: -0.344; mean distance from KSR1 profile: 2.65

2 of these entries, set out differently.
{"gene knocked down":"ACP5","mean correlation with KSR1 profile":-0.831,"mean distance from KSR1 profile":2.95}
{"gene knocked down":"ZBTB7B","mean correlation with KSR1 profile":-0.524,"mean distance from KSR1 profile":2.11}
